No constants are given. Whether binding was seen depends on the method and setting. For some assays here: Binding seen in cells or lysates may run through a third protein. Some entries that bind do so weakly or less than the wild type. For some assays here: Tags and fused reporters may be left off the sequences shown.
T1: AtSUN1 (Arabidopsis thaliana) (UniProt Q9FF75)
T1 sequence: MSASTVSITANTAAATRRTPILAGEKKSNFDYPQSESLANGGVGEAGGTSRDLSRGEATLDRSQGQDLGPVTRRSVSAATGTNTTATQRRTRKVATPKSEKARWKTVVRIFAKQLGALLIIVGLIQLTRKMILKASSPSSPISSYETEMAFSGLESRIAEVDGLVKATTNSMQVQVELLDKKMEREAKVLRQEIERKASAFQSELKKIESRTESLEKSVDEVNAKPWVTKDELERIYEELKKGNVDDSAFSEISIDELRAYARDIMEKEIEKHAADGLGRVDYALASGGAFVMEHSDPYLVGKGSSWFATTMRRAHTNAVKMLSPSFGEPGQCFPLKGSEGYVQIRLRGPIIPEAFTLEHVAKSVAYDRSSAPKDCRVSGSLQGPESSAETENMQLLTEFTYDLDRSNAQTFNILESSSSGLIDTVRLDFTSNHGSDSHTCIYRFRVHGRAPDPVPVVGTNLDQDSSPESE

T2: AtSUN2 (Arabidopsis thaliana) (UniProt Q9SG79)
T2 sequence: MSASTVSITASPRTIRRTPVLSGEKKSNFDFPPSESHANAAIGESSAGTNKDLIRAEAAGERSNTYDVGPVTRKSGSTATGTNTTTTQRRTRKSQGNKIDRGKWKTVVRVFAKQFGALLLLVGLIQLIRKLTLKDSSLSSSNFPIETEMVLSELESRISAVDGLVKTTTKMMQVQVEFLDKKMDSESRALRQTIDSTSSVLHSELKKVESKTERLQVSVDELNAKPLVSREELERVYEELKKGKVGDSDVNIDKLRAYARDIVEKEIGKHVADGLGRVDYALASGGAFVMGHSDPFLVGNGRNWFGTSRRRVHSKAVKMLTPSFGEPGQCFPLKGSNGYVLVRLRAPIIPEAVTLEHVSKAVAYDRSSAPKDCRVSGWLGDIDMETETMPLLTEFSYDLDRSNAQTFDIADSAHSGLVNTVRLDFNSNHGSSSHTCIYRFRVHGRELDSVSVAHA

T3: AtWIP1 (Arabidopsis thaliana) (UniProt Q8GXA4)
T3 sequence: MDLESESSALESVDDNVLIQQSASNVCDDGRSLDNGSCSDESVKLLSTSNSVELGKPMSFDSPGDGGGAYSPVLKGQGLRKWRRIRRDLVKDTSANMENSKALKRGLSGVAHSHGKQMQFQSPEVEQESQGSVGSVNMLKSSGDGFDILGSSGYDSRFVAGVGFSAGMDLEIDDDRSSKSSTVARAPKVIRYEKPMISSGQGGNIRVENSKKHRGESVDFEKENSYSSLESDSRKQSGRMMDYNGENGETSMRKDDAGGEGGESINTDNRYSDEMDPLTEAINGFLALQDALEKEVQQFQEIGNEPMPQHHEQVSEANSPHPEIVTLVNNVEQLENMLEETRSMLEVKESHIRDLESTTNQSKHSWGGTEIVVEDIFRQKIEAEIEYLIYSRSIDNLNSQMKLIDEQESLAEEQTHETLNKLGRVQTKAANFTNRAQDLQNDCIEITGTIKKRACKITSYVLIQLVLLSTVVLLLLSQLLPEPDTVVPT

T4: YFP^N-AtWIP1 (Arabidopsis thaliana) (UniProt Q8GXA4)
T4 sequence: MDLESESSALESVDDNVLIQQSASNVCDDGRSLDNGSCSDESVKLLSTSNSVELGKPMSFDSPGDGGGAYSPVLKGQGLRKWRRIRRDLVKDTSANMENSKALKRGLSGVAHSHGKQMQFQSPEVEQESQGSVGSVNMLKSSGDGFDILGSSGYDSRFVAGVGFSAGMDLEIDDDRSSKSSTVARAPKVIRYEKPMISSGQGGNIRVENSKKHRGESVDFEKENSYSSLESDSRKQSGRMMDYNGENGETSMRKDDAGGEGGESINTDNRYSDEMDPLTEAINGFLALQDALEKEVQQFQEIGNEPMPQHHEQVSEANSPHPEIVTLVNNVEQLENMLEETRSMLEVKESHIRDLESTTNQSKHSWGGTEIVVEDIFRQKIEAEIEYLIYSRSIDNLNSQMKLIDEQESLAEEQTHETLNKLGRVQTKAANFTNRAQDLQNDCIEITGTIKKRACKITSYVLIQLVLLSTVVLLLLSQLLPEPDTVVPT


How the values were obtained:
[1] = target: T1, AtSUN1 (Arabidopsis thaliana); assay: two-hybrid; Gal4 fusions in pGADT7-GW and pGBKT7-GW, each protein as bait or as prey, mating of the AH109 and Y187 yeast strains; cells spotted on selective medium
[2] = target: T2, AtSUN2 (Arabidopsis thaliana); assay: as above
[3] = target: T3, AtWIP1 (Arabidopsis thaliana); assay: as above
[4] = target: T4, YFP^N-AtWIP1 (Arabidopsis thaliana); assay: split reporter; split YFP fusions (pBiFP vectors) transiently co-expressed in N. benthamiana leaves by Agrobacterium infiltration, with the P19 suppressor; all eight compatible combinations assayed; YFP fluorescence by confocal microscopy three days after infiltration

Row | Binder | binding [1] | binding [2] | binding [3] | binding [4]
1 | AtWIP1 (protein, UniProt Q8GXA4 1-489) MDLESESSALESVDDNVLIQQSASNVCDDGRSLDNGSCSDESVKLLSTSNSVELGKPMSFDSPGDGGGAYSPVLKGQGLRKWRRIRRDLVKDTSANMENSKALKRGLSGVAHSHGKQMQFQSPEVEQESQGSVGSVNMLKSSGDGFDILGSSGYDSRFVAGVGFSAGMDLEIDDDRSSKSSTVARAPKVIRYEKPMISSGQGGNIRVENSKKHRGESVDFEKENSYSSLESDSRKQSGRMMDYNGENGETSMRKDDAGGEGGESINTDNRYSDEMDPLTEAINGFLALQDALEKEVQQFQEIGNEPMPQHHEQVSEANSPHPEIVTLVNNVEQLENMLEETRSMLEVKESHIRDLESTTNQSKHSWGGTEIVVEDIFRQKIEAEIEYLIYSRSIDNLNSQMKLIDEQESLAEEQTHETLNKLGRVQTKAANFTNRAQDLQNDCIEITGTIKKRACKITSYVLIQLVLLSTVVLLLLSQLLPEPDTVVPT | binds | binds |  | 
2 | AtPSS1 (protein, UniProt Q8GW44 1-465) MSNVTVCARFRPRSSKEMRDPSRDGVCARPIDAETFVFQDDKEDEFTFSLDRVFYEDSTQAAVYEFLALPIMRDAVNGINGTIITYGQTGAGKTYSMEGPGIQDCDEHNKGLLPRVVHGMFEQISSSNDIARYTVKLSMVEIYMEKVRDLLDLSKANIQIKENKTQGILLSGVTEVPVSDSVEALQHLCTGLANRAVGETQMNMSSSRSHCAYLFTIQQDSVKDKRVKTGKLILVDLAGSEKADKTGAEGRVLEEAKTINKSLSALGNVINALTSGPSSKGNHIPYRDSKLTRILQDALGGNSRMALLCCCSPSTLNASETLSTLRFGMRAKHIKASPRASEVKSAKAQEEPSSVTKDEKCGRILEKMKERMSNEDIKMLEDVFIQEGIIFSLDSMAEVETVYEDIVSKTIQSLQQAVDELQQKVKKLEAENIGIQEQALRNHEPGSVGKMSRFISSWYASFFTS |  |  | binds | 

The next lines start with the values.

Row | binding [1] | binding [2] | binding [3] | binding [4] | Binder
3 |  |  |  | binds | YFP^C-AtPSS1 (protein, UniProt Q8GW44 1-465) MSNVTVCARFRPRSSKEMRDPSRDGVCARPIDAETFVFQDDKEDEFTFSLDRVFYEDSTQAAVYEFLALPIMRDAVNGINGTIITYGQTGAGKTYSMEGPGIQDCDEHNKGLLPRVVHGMFEQISSSNDIARYTVKLSMVEIYMEKVRDLLDLSKANIQIKENKTQGILLSGVTEVPVSDSVEALQHLCTGLANRAVGETQMNMSSSRSHCAYLFTIQQDSVKDKRVKTGKLILVDLAGSEKADKTGAEGRVLEEAKTINKSLSALGNVINALTSGPSSKGNHIPYRDSKLTRILQDALGGNSRMALLCCCSPSTLNASETLSTLRFGMRAKHIKASPRASEVKSAKAQEEPSSVTKDEKCGRILEKMKERMSNEDIKMLEDVFIQEGIIFSLDSMAEVETVYEDIVSKTIQSLQQAVDELQQKVKKLEAENIGIQEQALRNHEPGSVGKMSRFISSWYASFFTS
4 | binds | binds |  |  | AtWIP3 (protein, UniProt Q94AV5 1-459) MNESVPDSVEDNGNSVPANGLLVLPDNDHEEGGVGSPQRSNSVESPGGSVHSTRKGFGLKKWRRIKRDGPVRDEAAPVDDGSKLLKRGLAGLVNPPSKHVEFSSVEARQSSEGSVGSVNMVHHPGVANGFSPDIGCMFAVGQAFEKSEEHSGNTIGGKNVVGGKVVSGSQEKLWSDTIKRASEERGDIEKEKPCSSLDSDLRSSDFVFSTGSVSVGNHGEKDERLTMNYIGGFSNEGQVKEEVQTYSRSENGNKEDDGESKKNNNHWADKDALADSIRSFAVLQEVLWKEVQSFQELGKESVLLHSNTDELSSDQPSHQNCKEDNSTSSGSKALILKEKVKLLEHKLEEARAALEAKEARIQELENSKIESELECIFQRKIETEIEHLMLTRSLSSLQVLQETKKLHSLKEDPVSNRGNILGKTCKLGFYILTQLILLVSILRFLVLQFSPASRLVIPT
5 | binds | binds |  |  | AtWIP2 (protein, UniProt Q9FH18 1-509) MDLESESSVLESVEDNNGLIGDLDKELNSPVETSPLISKGFGLRKWKRRLRRDLVKDDTSVSMENSKALKRVLSGLVDPNAKQMHLPGPEVRQDSVGSVGSVNSVVGFVMGGESYGNGLAFAAGVDSDNSEDRSSTMSHSWDKHRGKVSGGKSVISSGDSSQQRKSSVEKSNKLRGERIKIEKENSHSSMESADSRSSNFVFMQGASYSLSSREQGGRRMMDYDDENSDHDAHTSKRKDNVEEEEEETEDYSQGDCVEESQIKSNGSSDNLDPLIVAVNSFQTLQEALQKELQKFQELGKEEPITSLHDGGESSSCIHAGHEGASEASSSYRFGSEKMGEMELTSLDSEILNLVNNVEHLEIKLEEAKRILEVKETQIRELESTINVSETCNGGTEIGIEDIFQQKVEAEIEYIIFSRSVGNLKRRIKLIEEEKTLGLSKLDKAETKAENLKNQAQDLQNHCVEITEIQEVECLKKRAFKTTRCLLLQLGLLFILYYSLLPEPEIAVPT

— article PMC4199493
